# Experimental data reported in publication PMC7819943, “Rice protein-binding microarrays: a tool to detect cis-acting elements near promoter regions in rice”.
# Chains of the proteins cited; added tags and fusions are not shown.
# UniProt Q0JBA9, entry or part of it: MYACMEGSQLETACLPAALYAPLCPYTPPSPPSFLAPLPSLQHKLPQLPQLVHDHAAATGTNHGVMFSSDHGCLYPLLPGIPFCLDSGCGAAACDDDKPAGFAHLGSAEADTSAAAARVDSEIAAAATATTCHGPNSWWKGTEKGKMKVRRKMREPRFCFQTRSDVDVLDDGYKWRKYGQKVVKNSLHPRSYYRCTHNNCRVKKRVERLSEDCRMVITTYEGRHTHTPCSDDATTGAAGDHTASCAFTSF
# This is one part of the list.
# Target: OsWRKY34 (Oryza sativa, UniProt Q0JBA9 1-250)
# Assay: protein-binding microarray (RPBM); PBS, 2% BSA, 51.3 ng/ul salmon testes DNA, 50 uM zinc acetate, 200 nM TF, 25 C, 1 h; high values mean tight binding
# Conditions: protein: recombinant; tags: N-terminal polyhistidine and DsRed monomer fusion (pET32a); label: CyDye5-dUTP incorporated in the synthesized complementary strand; 3' TTTTT single-stranded linker to array surface; dsDNA, one strand shown
# Method in brief: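 Binding signal here means per-feature fluorescence intensity in arbitrary units. The values were read on an Axon 4000B scanner after a custom Agilent array, double-stranded by primer extension with Cy5-dUTP, was incubated with 200 nM protein at 25 °C for 1 h in PBS with 2% BSA, salmon testes DNA and 50 µM zinc acetate, then washed. The proteins were transcription factors with an N-terminal polyhistidine tag and DsRed, expressed in E. coli BL21-CodonPlus and purified on Ni–NTA.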
row,Sequence,binding signal
1,AACTGTCACCGGCCGACGTTAATGCCATGCCGCCGCGTACCGGAGTCACCTAGTGCAG,8250 fluorescence intensity (a.u.)
2,GGGAACGGTTTTGTTAGTTGAGGGATGCCGGTATCTGGTTCGGAGTCACCTAGTGCAG,8890 fluorescence intensity (a.u.)
3,ACTTCTCGTCTTCCTCTCCTCTCTCTCGTTTCGATTCCCCCGGAGTCACCTAGTGCAG,8600 fluorescence intensity (a.u.)
4,ATCTATAAGCGCTCACGCGCTATTTTGCTTTTGGTCCGAACGGAGTCACCTAGTGCAG,8620 fluorescence intensity (a.u.)
5,GTCAAACTTGCTCGATCTCTTGCTCATCTGCGTGCACCTCCGGAGTCACCTAGTGCAG,8610 fluorescence intensity (a.u.)
6,CTATTGTTCTCTAGCTGTTGTTCTCTAGTGTATTGTCCATCGGAGTCACCTAGTGCAG,9410 fluorescence intensity (a.u.)
7,GGGCATCTCTTTCTTTCGCGTTCGGCTTCCTTCCCTGTTTCGGAGTCACCTAGTGCAG,11200 fluorescence intensity (a.u.)
8,GTTGTTTATCGTTTTCTTGTTATTTTATGGATTTTATTGACGGAGTCACCTAGTGCAG,9860 fluorescence intensity (a.u.)
9,AAAAAATACTATCTATGTACCCCTCCGTTTCTTTTTATTTCGGAGTCACCTAGTGCAG,8890 fluorescence intensity (a.u.)
10,GCCCACGTCGTTCCCAAGCATATGCCCTAATCGGCTTTAACGGAGTCACCTAGTGCAG,8300 fluorescence intensity (a.u.)
11,ATAGCTCATGCAACACAAGCCATTAATCTAATCTTGCATTCGGAGTCACCTAGTGCAG,8040 fluorescence intensity (a.u.)
12,TACTGCTTCTCAGACATTCTTGTTGCACTGGAGATCCAGACGGAGTCACCTAGTGCAG,8780 fluorescence intensity (a.u.)
13,GGAAGTTTTTGTCCTACTAGTGTGCAACCGTGCATCTATTCGGAGTCACCTAGTGCAG,8250 fluorescence intensity (a.u.)
14,CTAGCACTACTCCTACTTTATCCGTTTCACAATATAGACACGGAGTCACCTAGTGCAG,8950 fluorescence intensity (a.u.)
15,ATTACGGTTGCTCCTTTGTTTACTTTTTATGTTTAAAGCTCGGAGTCACCTAGTGCAG,10800 fluorescence intensity (a.u.)
16,CAAGCGTTCACACCTTCGGCCTGGCCTTTTTTATACTCCCCGGAGTCACCTAGTGCAG,9670 fluorescence intensity (a.u.)
17,GAGCATCAGAGCACCGTTTCTTTCCACCGCTCTCTCCCGACGGAGTCACCTAGTGCAG,9250 fluorescence intensity (a.u.)
18,TGTGGTTTTTCCTGTCTACGTTTTTACACCCATGTTCTACCGGAGTCACCTAGTGCAG,9780 fluorescence intensity (a.u.)
19,TTGCCATCTCTATCCACCACTGCCTCCCCTCCAAGGCACGCGGAGTCACCTAGTGCAG,8340 fluorescence intensity (a.u.)
20,AAAAAAGTCAACGGTATTAAATATTTAGGGATGTGGAGAGCGGAGTCACCTAGTGCAG,12200 fluorescence intensity (a.u.)
21,CGTCCCGCACAGCGCTCCTCTCTCCCGTGCGGCGCTCGTCCGGAGTCACCTAGTGCAG,8630 fluorescence intensity (a.u.)

row,Sequence,binding signal
1,TAGCCTCTATACATTTACATCCAACATAATATCAAACTTTCGGAGTCACCTAGTGCAG,8610 fluorescence intensity (a.u.)
2,CAATTCCTACGTTTTTCCTGCAGTTCAATCAAACGGTCATCGGAGTCACCTAGTGCAG,8650 fluorescence intensity (a.u.)
3,TCTTTGTCTCTGTCTCTCTCTCCCGAGCTATAGCTACAGCCGGAGTCACCTAGTGCAG,12300 fluorescence intensity (a.u.)
4,GCACTACCCTACTTTCGTCGGCCTCTCGACTCCTGGAACCCGGAGTCACCTAGTGCAG,10100 fluorescence intensity (a.u.)
5,GGTGGCCCTACTTAATTACGCATGCAACGGAGGTTTAACGCGGAGTCACCTAGTGCAG,8790 fluorescence intensity (a.u.)
6,AATCCTTTATCCAGTAATCTTTTCTTTTTGATGATAGTTACGGAGTCACCTAGTGCAG,8610 fluorescence intensity (a.u.)
7,GGCGATGGCGGGGCATGGATGTGGGCATGTGGCGCGACTACGGAGTCACCTAGTGCAG,8780 fluorescence intensity (a.u.)
8,CTTAGCCGCTTATACCTAATCGAACGGTGAGCCTATCCTCCGGAGTCACCTAGTGCAG,8520 fluorescence intensity (a.u.)
9,GTATGCTCTCTGAATGACATGTATTATTTTTCTCTCGAAACGGAGTCACCTAGTGCAG,8110 fluorescence intensity (a.u.)
10,ATTTTTTGTGTTCCAACCTTTCTTGTCTTGTTATTTTACCCGGAGTCACCTAGTGCAG,13400 fluorescence intensity (a.u.)
11,CACCCCTACTTGTATTTCGAAATTAACATACATCATTTTTCGGAGTCACCTAGTGCAG,9890 fluorescence intensity (a.u.)
12,TGTTTGCTGAGGAAGTTTTCAACTAGCACTTCGCTATCAACGGAGTCACCTAGTGCAG,8840 fluorescence intensity (a.u.)
13,GCAGGATCTCCACTCCGGTCCCACTTACTGACACCTCTCTCGGAGTCACCTAGTGCAG,9070 fluorescence intensity (a.u.)
14,CCCTTATCTCTTCTCTGCTTCTCGTTCTTTTCTCTCTCTCCGGAGTCACCTAGTGCAG,12800 fluorescence intensity (a.u.)
15,TGTGAGACCTACATGTCATACTCCTCTTGCTCTATCGATCCGGAGTCACCTAGTGCAG,10100 fluorescence intensity (a.u.)
16,ATTTGTTGTTTCATTTGTATTGTTTTGTGTTGGTTTATGTCGGAGTCACCTAGTGCAG,8940 fluorescence intensity (a.u.)
17,AGTTAGATCCGTGTCACATTTCATGTTTTGTCCTCATTCTCGGAGTCACCTAGTGCAG,10600 fluorescence intensity (a.u.)
18,GCTTTGATTCAAATGGGCCCTGAAATTCCTATGAATTTCTCGGAGTCACCTAGTGCAG,8120 fluorescence intensity (a.u.)
19,ATATACTTTCATGTACACATATAGTTTTACATATTTCATACGGAGTCACCTAGTGCAG,10500 fluorescence intensity (a.u.)
20,AATACTTACAACGTGTCCGATGTTCCCAGTAATCCTTTCCCGGAGTCACCTAGTGCAG,8150 fluorescence intensity (a.u.)
21,TGTGTTTGTGGATTAGGTAGGGAGGGATAAAGAAGTACTACGGAGTCACCTAGTGCAG,11200 fluorescence intensity (a.u.)

# Retrieved one by one from the list above, three records:
row,Sequence,binding signal
1,TAGCCTCTATACATTTACATCCAACATAATATCAAACTTTCGGAGTCACCTAGTGCAG,8610 fluorescence intensity (a.u.)
4,GCACTACCCTACTTTCGTCGGCCTCTCGACTCCTGGAACCCGGAGTCACCTAGTGCAG,10100 fluorescence intensity (a.u.)
17,AGTTAGATCCGTGTCACATTTCATGTTTTGTCCTCATTCTCGGAGTCACCTAGTGCAG,10600 fluorescence intensity (a.u.)
